Assay results as given in patent publication US6372898.
No constants are given. Whether binding was seen depends on the method and setting. In cells and extracts the contact can be indirect. Some binding calls cover weakened binding; strength is not graded here.

The chains behind the UniProt entries cited, without tags or fusion partners. Where a name states a change or a piece, a line headed by the entry shows the natural chain unless it says otherwise.
UniProt P52333: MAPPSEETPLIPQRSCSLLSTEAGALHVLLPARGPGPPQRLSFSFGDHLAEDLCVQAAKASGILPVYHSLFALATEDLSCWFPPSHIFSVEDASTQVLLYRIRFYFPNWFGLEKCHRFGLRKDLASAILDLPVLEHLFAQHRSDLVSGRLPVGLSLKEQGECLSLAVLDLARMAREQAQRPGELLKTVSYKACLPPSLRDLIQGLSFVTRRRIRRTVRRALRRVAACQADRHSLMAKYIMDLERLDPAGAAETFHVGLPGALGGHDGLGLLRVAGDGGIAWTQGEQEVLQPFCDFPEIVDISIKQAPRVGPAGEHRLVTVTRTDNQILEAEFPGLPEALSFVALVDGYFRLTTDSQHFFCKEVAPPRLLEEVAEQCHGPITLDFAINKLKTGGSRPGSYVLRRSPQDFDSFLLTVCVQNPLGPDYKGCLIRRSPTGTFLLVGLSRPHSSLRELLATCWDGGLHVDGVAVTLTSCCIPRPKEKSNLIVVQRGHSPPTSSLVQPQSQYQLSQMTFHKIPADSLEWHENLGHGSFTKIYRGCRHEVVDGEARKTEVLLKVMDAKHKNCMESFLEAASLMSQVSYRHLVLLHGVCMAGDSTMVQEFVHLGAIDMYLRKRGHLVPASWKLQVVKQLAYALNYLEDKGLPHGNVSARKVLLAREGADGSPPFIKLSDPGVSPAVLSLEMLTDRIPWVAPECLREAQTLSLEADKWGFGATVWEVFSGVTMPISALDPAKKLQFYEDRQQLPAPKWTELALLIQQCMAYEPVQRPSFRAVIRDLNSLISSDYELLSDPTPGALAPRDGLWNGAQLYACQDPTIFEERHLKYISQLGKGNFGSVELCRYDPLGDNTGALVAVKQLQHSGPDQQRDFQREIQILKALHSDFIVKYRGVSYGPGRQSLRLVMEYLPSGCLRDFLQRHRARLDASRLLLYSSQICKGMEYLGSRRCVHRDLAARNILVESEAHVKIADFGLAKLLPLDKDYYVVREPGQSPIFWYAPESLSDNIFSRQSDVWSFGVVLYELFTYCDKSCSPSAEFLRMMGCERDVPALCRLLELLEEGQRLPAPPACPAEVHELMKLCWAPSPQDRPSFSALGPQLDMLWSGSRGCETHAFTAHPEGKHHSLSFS

Columns and labels:
[1] = biological target: T1, cytokine receptor common gamma chain (γc), wild type (human) (UniProt P31785); assay: co-immunoprecipitation from 293T lysates; γc precipitated, blot for the epitope-tagged Jak3 fragment
T1 sequence: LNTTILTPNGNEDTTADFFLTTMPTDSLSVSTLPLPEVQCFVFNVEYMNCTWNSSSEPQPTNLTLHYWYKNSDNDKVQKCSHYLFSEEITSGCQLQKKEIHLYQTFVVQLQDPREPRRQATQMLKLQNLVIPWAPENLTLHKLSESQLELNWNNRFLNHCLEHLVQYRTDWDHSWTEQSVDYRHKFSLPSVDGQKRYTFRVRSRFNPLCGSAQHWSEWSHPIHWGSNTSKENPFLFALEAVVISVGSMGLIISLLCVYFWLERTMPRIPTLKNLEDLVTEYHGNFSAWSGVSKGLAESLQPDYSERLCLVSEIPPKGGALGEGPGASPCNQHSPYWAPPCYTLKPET

[2] = biological target: T1, cytokine receptor common gamma chain (γc), wild type (human); assay: co-immunoprecipitation from 293T lysates; goat anti-γc IP, blot anti-Myc 9E10
[3] = biological target: T1, cytokine receptor common gamma chain (γc), wild type (human); assay: co-immunoprecipitation from 293T lysates

binding [1] | binding [2] | binding [3] | Substance
binds | – | – | Jak3 fragment J3 1-130 (from UniProt P52333 1-130)
binds | binds | – | Myc-tagged Jak3 fragment 1-193 (from UniProt P52333 1-193)
binds | – | binds | Jak3 fragment J3 72-130 (from UniProt P52333 72-130)
